From PubChem BioAssay AID256 (DTP/NCI, 2004)
The list is a part of this screen's results and no random one: it gathers tests that were run many times, whatever their T/C, doses with no T/C, and many T/C values between a quarter and a half above the control. Further doses and runs are listed elsewhere. T/C is the treated group as % of the vehicle group. Some entries give survivors of the animals treated and no T/C: the source files T/C as zero there, which appears to mark a toxic dose or a test without result, not a measured value. Survivors were counted at the toxicity check, usually on the fifth day, unless a day is given; later deaths do not show. Schedule codes are those of the source, taken here to give the interval after Q, in days (D) or hours (H), and the number of doses after X. Some structures stand for samples that the source files as different forms (salt, stereo form or complex); doses refer to the form tested. Some doses were run more than once; their values stand side by side, smallest first. Where survival is the endpoint, this PubChem deposit counts one and a half times the control or more as active, and values a quarter to a half above the control carry no call in these data; other NCI protocols may use other cut-offs. Some T/C values carry the count of animals alive at the toxicity check (mostly the fifth day); where none is given, no animal had died by that day.

Tested on: CD2F1 mice, L1210 leukemia ip, survival T/C
Assay: NCI In Vivo Anticancer Drug Screen. Data for tumor model L1210 Leukemia (intraperitoneal) in CD2F1 (CDF1) mice
Settings: higher T/C = longer survival
In short: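 In this screen, transplantable tumors were grown in mice given either the compound or its vehicle. Results were expressed as the treated measurement relative to the control measurement.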

[1] = T/C endpoint: mean survival time, dose: 45.9 mg/kg/injection, schedule: Q01DX005 (iv), vehicle: saline with Tween-80

Cc1cc(NCCCCCCNc2cc(C)nc3ccc(N)cc23)c2cc(N)ccc2n1
survivor count (T/C endpoint: mean survival time, dose: 4.5 mg/kg/injection, schedule: Q01DX005 (iv), vehicle: water): 3 of 10 | survivor count (T/C endpoint: mean survival time, dose: 4.51 mg/kg/injection, schedule: Q01DX005 (iv), vehicle: water): 0 of 10 | T/C (T/C endpoint: mean survival time, dose: 4.9 mg/kg/injection, schedule: Q08HX009 (ip), vehicle: saline with Tween-80): 126 % of control | survivor count (T/C endpoint: mean survival time, dose: 5.0 mg/kg/injection, schedule: Q08HX009 (iv), vehicle: water): 4 of 10 | survivor count (T/C endpoint: mean survival time, dose: 6.0 mg/kg/injection, schedule: Q01DX005 (iv), vehicle: water): 0 of 10 | survivor count (T/C endpoint: mean survival time, dose: 6.01 mg/kg/injection, schedule: Q01DX005 (iv), vehicle: water): 0 of 9 | T/C (T/C endpoint: mean survival time, dose: 6.01 mg/kg/injection, schedule: Q01DX009 (ip), vehicle: water): 127 % of control | survivor count (T/C endpoint: mean survival time, dose: 6.25 mg/kg/injection, schedule: Q01DX009 (ip), vehicle: water): 6 of 10 | survivor count (T/C endpoint: mean survival time, dose: 8.0 mg/kg/injection, schedule: Q01DX005 (iv), vehicle: water): 0 of 10 | survivor count (T/C endpoint: mean survival time, dose: 8.01 mg/kg/injection, schedule: Q01DX005 (iv), vehicle: water): 0 of 10 | T/C (T/C endpoint: mean survival time, dose: 8.01 mg/kg/injection, schedule: Q01DX009 (ip), vehicle: water): 134 % of control | T/C (T/C endpoint: mean survival time, dose: 8.2 mg/kg/injection, schedule: Q01DX009 (ip), vehicle: saline with Tween-80): 128 % of control | T/C (T/C endpoint: mean survival time, dose: 9.4 mg/kg/injection, schedule: Q01DX009 (ip), vehicle: saline with Tween-80): 121, 124, 127, 128 % of control | T/C (T/C endpoint: mean survival time, dose: 9.4 mg/kg/injection, schedule: Q01DX009 (ip), vehicle: water): 127 % of control | T/C (T/C endpoint: mean survival time, dose: 9.6 mg/kg/injection, schedule: Q01DX009 (ip), vehicle: water): 129 % of control | T/C (T/C endpoint: mean survival time, dose: 9.8 mg/kg/injection, schedule: Q08HX009 (ip), vehicle: saline with Tween-80): 134 % of control | survivor count (T/C endpoint: mean survival time, dose: 10.0 mg/kg/injection, schedule: Q08HX009 (iv), vehicle: water): 0 of 10 | survivor count (T/C endpoint: mean survival time, dose: 10.7 mg/kg/injection, schedule: Q01DX005 (iv), vehicle: water): 0 of 10 and 0 of 8 | T/C (T/C endpoint: mean survival time, dose: 10.7 mg/kg/injection, schedule: Q01DX009 (ip), vehicle: water): 142 % of control | T/C (T/C endpoint: mean survival time, dose: 10.9 mg/kg/injection, schedule: Q01DX009 (ip), vehicle: saline with Tween-80): 132 % of control | T/C (T/C endpoint: mean survival time, dose: 12.5 mg/kg/injection, schedule: Q01DX009 (ip), vehicle: water): 136 and 147 % of control | T/C (T/C endpoint: mean survival time, dose: 12.8 mg/kg/injection, schedule: Q08HX009 (ip), vehicle: water): 139 % of control | survivor count (T/C endpoint: mean survival time, dose: 14.2 mg/kg/injection, schedule: Q01DX005 (iv), vehicle: water): 0 of 10 | T/C (T/C endpoint: mean survival time, dose: 14.2 mg/kg/injection, schedule: Q01DX009 (ip), vehicle: water): 136 % of control | T/C (T/C endpoint: mean survival time, dose: 14.7 mg/kg/injection, schedule: Q01DX009 (ip), vehicle: saline with Tween-80): 131 % of control | survivor count (T/C endpoint: mean survival time, dose: 16.7 mg/kg/injection, schedule: Q01DX009 (ip), vehicle: water): 2 of 10 and 5 of 10 | T/C (T/C endpoint: mean survival time, dose: 18.8 mg/kg/injection, schedule: Q01DX009 (ip), vehicle: saline with Tween-80): 122, 145, 147, 149 % of control | survivor count (T/C endpoint: mean survival time, dose: 19.0 mg/kg/injection, schedule: Q01DX005 (iv), vehicle: water): 0 of 10 | T/C (T/C endpoint: mean survival time, dose: 19.0 mg/kg/injection, schedule: Q01DX009 (ip), vehicle: water): 143 % of control | T/C (T/C endpoint: mean survival time, dose: 19.2 mg/kg/injection, schedule: Q01DX009 (ip), vehicle: water): 142 % of control [9 of 10 alive] | survivor count (T/C endpoint: mean survival time, dose: 20.0 mg/kg/injection, schedule: Q08HX009 (iv), vehicle: water): 0 of 10 | T/C (T/C endpoint: mean survival time, dose: 22.7 mg/kg/injection, schedule: Q01DX009 (ip), vehicle: saline with Tween-80): 127 % of control | T/C (T/C endpoint: mean survival time, dose: 25.0 mg/kg/injection, schedule: Q01DX009 (ip), vehicle: water): 129 % of control [9 of 10 alive] | survivor count (T/C endpoint: mean survival time, dose: 25.3 mg/kg/injection, schedule: Q01DX005 (iv), vehicle: water): 0 of 9 | survivor count (T/C endpoint: mean survival time, dose: 25.6 mg/kg/injection, schedule: Q08HX009 (ip), vehicle: water): 2 of 8 | survivor count (T/C endpoint: mean survival time, dose: 29.7 mg/kg/injection, schedule: Q01DX009 (ip), vehicle: water): 1 of 10 | survivor count (T/C endpoint: mean survival time, dose: 33.8 mg/kg/injection, schedule: Q01DX005 (iv), vehicle: water): 0 of 10 | survivor count (T/C endpoint: mean survival time, dose: 33.8 mg/kg/injection, schedule: Q01DX009 (ip), vehicle: water): 2 of 10 | T/C (T/C endpoint: mean survival time, dose: 37.5 mg/kg/injection, schedule: Q01DX009 (ip), vehicle: saline with Tween-80): 134, 138, 150, 169, 173 % of control | survivor count (T/C endpoint: mean survival time, dose: 38.5 mg/kg/injection, schedule: Q01DX009 (ip), vehicle: water): 0 of 10 | T/C (T/C endpoint: mean survival time, dose: 40.4 mg/kg/injection, schedule: Q01DX009 (ip), vehicle: saline with Tween-80): 138 % of control | survivor count (T/C endpoint: mean survival time, dose: 45.0 mg/kg/injection, schedule: Q01DX005 (iv), vehicle: water): 0 of 10 | survivor count (T/C endpoint: mean survival time, dose: 45.0 mg/kg/injection, schedule: Q01DX009 (ip), vehicle: water): 0 of 10 | T/C (T/C endpoint: mean survival time, dose: 45.0 mg/kg/injection, schedule: Q01DX009 (sc), vehicle: water): 134 % of control | T/C [1]: 135 % of control [9 of 10 alive] | survivor count [1]: 4 of 10 | T/C (T/C endpoint: mean survival time, dose: 45.9 mg/kg/injection, schedule: Q01DX009 (sc), vehicle: saline with Tween-80): 130 % of control | survivor count (T/C endpoint: mean survival time, dose: 50.0 mg/kg/injection, schedule: Q01DX009 (ip), vehicle: water): 1 of 10 | survivor count (T/C endpoint: mean survival time, dose: 52.8 mg/kg/injection, schedule: Q01DX009 (ip), vehicle: water): 0 of 10 | survivor count (T/C endpoint: mean survival time, dose: 60.0 mg/kg/injection, schedule: Q01DX005 (iv), vehicle: water): 0 of 10 | survivor count (T/C endpoint: mean survival time, dose: 60.0 mg/kg/injection, schedule: Q01DX009 (ip), vehicle: water): 0 of 10 | T/C (T/C endpoint: mean survival time, dose: 60.0 mg/kg/injection, schedule: Q01DX009 (sc), vehicle: water): 141 % of control | T/C (T/C endpoint: mean survival time, dose: 71.8 mg/kg/injection, schedule: Q01DX009 (ip), vehicle: saline with Tween-80): 137 % of control | T/C (T/C endpoint: mean survival time, dose: 75.0 mg/kg/injection, schedule: Q01DX009 (ip), vehicle: saline with Tween-80): 138, 143 [9 of 10 alive], 148 [9 of 10 alive], 153, 154 % of control | survivor count (T/C endpoint: mean survival time, dose: 100.0 mg/kg/injection, schedule: Q01DX009 (ip), vehicle: water): 0 of 10 | T/C (T/C endpoint: mean survival time, dose: 133.0 mg/kg/injection, schedule: Q04DX003 (ip), vehicle: saline with Tween-80): 125 % of control [5 of 6 alive] | survivor count (T/C endpoint: mean survival time, dose: 150.0 mg/kg/injection, schedule: Q01DX009 (ip), vehicle: saline with Tween-80): 3 of 10 | survivor count (T/C endpoint: mean survival time, dose: 156.8 mg/kg/injection, schedule: Q08HX009 (ip), vehicle: saline with Tween-80): 5 of 10 | T/C (T/C endpoint: mean survival time, dose: 200.0 mg/kg/injection, schedule: Q04DX003 (ip), vehicle: saline with Tween-80): 131 % of control | T/C (T/C endpoint: mean survival time, dose: 200.0 mg/kg/injection, schedule: Q04DX003 (ip), vehicle: saline): 127 % of control | survivor count (T/C endpoint: mean survival time, dose: 235.2 mg/kg/injection, schedule: Q01DX009 (ip), vehicle: saline with Tween-80): 2 of 10 | survivor count (T/C endpoint: mean survival time, dose: 300.0 mg/kg/injection, schedule: Q01DX009 (ip), vehicle: saline with Tween-80): 0 of 6 and 5 of 10 | T/C (T/C endpoint: mean survival time, dose: 400.0 mg/kg/injection, schedule: Q04DX003 (ip), vehicle: saline): 148 % of control | T/C (T/C endpoint: median survival time, dose: 25.0 mg/kg/injection, schedule: Q01DX009 (ip), vehicle: water): 134 % of control [7 of 8 alive]

Nc1ccc2nc3c4ccccc4c(O)n3nc2c1
survivor count (T/C endpoint: mean survival time, dose: 400.0 mg/kg/injection, schedule: Q01DX009 (ip), vehicle: saline with Tween-80): 0 of 3
